Taken from: PubChem BioAssay AID504793 (Drosophila RNAi Screening Center, 2011)
In all, the deposit lists about 23,000 reagents; this is an unselected part of those that have a named target and a result. In the full data, 62 (0.27%) were called active. 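Calls come from follow-up tests whose scores are not deposited, so confirmed genes may have low counts here; counts are not normalised per plate.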 Raw values vary from plate to plate and are shown uncorrected. A plus sign joins genes that one reagent is predicted to hit.

- Test: 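Genes required for cells to halt at G2/M after double-strand DNA breaks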 (primary screen)
- Cells: Drosophila S2R+ cells
- Reagents: long dsRNA against Drosophila genes, about 0.25 µg dsRNA per well
- Timing: 4 days of dsRNA, then 4 hours of drug before read-out
- Challenge: doxorubicin 0.5 µM for 4 hours to cause double-strand breaks, in cells also given a low, harmless dose of dsRNA against nbs to sensitise the assay
- Measured: 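Mitotic index as the number of phospho-histone H3-positive cells in each well following doxorubicin, given as raw counts without normalisation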
- Reading the numbers: mitotic cells: higher = more cells in mitosis, weaker G2 arrest
- Rule for the call: 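a call needs confirmation in secondary tests, with other dsRNAs and a check of mitotic timing without damage, not just a high primary count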
- Calls: active = confirmed in follow-up tests; inactive = not confirmed

target | amplicon | mitotic cells, replicate 1 | mitotic cells, replicate 2 | Call
fs(1)K10 | DRSC18775 | 4 | – | inactive
fs(1)K10 | DRSC25258 | 7 | – | inactive
CG30043 | DRSC06285 | 7 | – | inactive
mRpS18C | DRSC16538 | 12 | – | inactive
mRpS18C | DRSC27054 | 6 | – | inactive
CG13454 | DRSC10001 | 7 | – | inactive
CG42404 | DRSC15558 | 5 | – | inactive
Atg18b | DRSC03108 | 1 | – | inactive
Atg18b | DRSC28594 | 4 | – | inactive
CG3198 | DRSC18292 | 11 | – | inactive
CG3198 | DRSC24615 | 8 | – | inactive
CG32436 | DRSC11683 | 6 | – | inactive
CG32436 | DRSC11796 | 3 | – | inactive
CG1927 | DRSC08146 | 9 | – | inactive
CG14965 | DRSC08424 | 2 | – | inactive
CG17574 | DRSC06681 | 4 | 14 | inactive
CheB93b | DRSC21762 | 4 | – | inactive
link | DRSC06368 | 4 | – | inactive
link | DRSC23511 | 6 | – | inactive
Nup107 | DRSC01999 | 3 | – | inactive
CG42784 | DRSC02534 | 3 | – | inactive
CG42784 | DRSC22804 | 15 | – | inactive
CG42784 | DRSC23000 | 14 | – | inactive
CG42784 | DRSC25815 | 4 | – | inactive
CG42784 | DRSC29731 | 7 | – | inactive
jing | DRSC04923 | 9 | – | inactive
jing | DRSC05000 | 3 | – | inactive
CG3356 | DRSC04358 | 10 | – | inactive
CG3356 | DRSC28869 | 8 | – | inactive
Vps45 | DRSC16398 | 11 | – | inactive
CG14826 | DRSC10197 | 4 | – | inactive
CG31688 | DRSC02682 | 5 | – | inactive
CG31688 | DRSC26711 | 8 | – | inactive
TotZ | DRSC13450 | 21 | – | inactive
Tpc2 | DRSC04322 | 2 | – | inactive
intr | DRSC14528 | 11 | – | inactive
CG14118 | DRSC10122 | 6 | – | inactive
asf1 | DRSC11324 | 14 | – | inactive
asf1 | DRSC24067 | 7 | – | inactive
7B2 | DRSC11991 | 3 | – | inactive
CG13247 | DRSC11695 | 3 | – | inactive
AOX4 | DRSC15337 | 3 | – | inactive
AOX4 | DRSC26337 | 4 | – | inactive
CG32985 | DRSC02634 | 4 | – | inactive
CG32985 | DRSC24453 | 8 | – | inactive
CG8745 | DRSC11033 | 5 | – | inactive
CG8745 | DRSC11034 | 3 | – | inactive
CG8745 | DRSC22741 | 10 | – | inactive
CG30039 | DRSC21794 | 9 | – | inactive
CG30039 | DRSC29391 | 7 | – | inactive
CG18628 | DRSC10328 | 5 | – | inactive
pb | DRSC12409 | 13 | – | inactive
pb | DRSC12629 | 5 | – | inactive
pb | DRSC25059 | 8 | – | inactive
Or82a | DRSC11996 | 5 | – | inactive
CG7530 | DRSC16255 | 9 | – | inactive
CG7530 | DRSC25476 | 9 | – | inactive
mRpL42 | DRSC06235 | 5 | – | inactive
CG4617 | DRSC18377 | 7 | – | inactive
CG4617 | DRSC23828 | 10 | – | inactive
brwl | DRSC01080 | 5 | – | inactive
brwl | DRSC24965 | 5 | – | inactive
TBPH | DRSC04660 | 4 | – | inactive
TBPH | DRSC28032 | 7 | – | inactive
Prp16 | DRSC19538 | 4 | – | inactive
Prp16 | DRSC19542 | 7 | – | inactive
CG14505 | DRSC06476 | 5 | – | inactive
Ugt49B1 | DRSC04461 | 6 | – | inactive
Ugt49B1 | DRSC26568 | 10 | – | inactive
Mpcp2 | DRSC11226 | 6 | – | inactive
uno | DRSC07244 | 5 | – | inactive
uno | DRSC28407 | 5 | – | inactive
Ppat-Dpck | DRSC09744 | 2 | – | inactive
Cul3 | DRSC03537 | 6 | – | inactive
Cul3 | DRSC21525 | 2 | – | inactive
Cul3 | DRSC26199 | 3 | – | inactive
Cul3 | DRSC27885 | 3 | – | inactive
Pask | DRSC04337 | 1 | – | inactive
Pask | DRSC28829 | 7 | – | inactive
CG1324 | DRSC20496 | 5 | – | inactive
CG1324 | DRSC25582 | 7 | – | inactive
RpL3 + CG6693 | DRSC16097 | 2 | – | inactive
GstD8 | DRSC16689 | 9 | – | inactive
GstD8 | DRSC24666 | 3 | – | inactive
Sam-S | DRSC00758 | 10 | – | inactive
eff | DRSC16940 | 2 | – | inactive
eff | DRSC38383 | 13 | – | inactive
Act5C | DRSC17723 | 19 | – | inactive
Act5C | DRSC25024 | 6 | – | inactive
Mcm3 | DRSC18679 | 7 | – | inactive
Mcm3 | DRSC25729 | 10 | – | inactive
Or43a | DRSC07485 | 4 | – | inactive
Tgs1 + moi | DRSC24535 | 4 | – | inactive
Droj2 | DRSC16450 | 14 | – | inactive
Droj2 | DRSC28863 | 27 | – | inactive
CG31300 | DRSC14657 | 7 | – | inactive
CG31300 | DRSC25696 | 7 | – | inactive
Bet1 | DRSC10088 | 5 | – | inactive
ldd | DRSC20558 | 6 | – | inactive
ldd | DRSC22696 | 6 | – | inactive
Pop5 | DRSC10074 | 1 | – | inactive
CG32099 | DRSC21352 | 18 | – | inactive
jhamt | DRSC01985 | 5 | – | inactive
CG14369 | DRSC14831 | 3 | – | inactive
CG14369 | DRSC25713 | 5 | – | inactive
CG17752 | DRSC15262 | 10 | – | inactive
CG17752 | DRSC26265 | 5 | – | inactive
Cpr65Eb | DRSC11026 | 4 | – | inactive
Cpr65Eb | DRSC23758 | 7 | – | inactive
CG1529 | DRSC20515 | 5 | 11 | inactive
CG1529 | DRSC24433 | 10 | – | inactive

19 successive entries from above, for reference:
target | amplicon | mitotic cells, replicate 1 | mitotic cells, replicate 2 | Call
CG32436 | DRSC11796 | 3 | – | inactive
CG1927 | DRSC08146 | 9 | – | inactive
CG14965 | DRSC08424 | 2 | – | inactive
CG17574 | DRSC06681 | 4 | 14 | inactive
CheB93b | DRSC21762 | 4 | – | inactive
link | DRSC06368 | 4 | – | inactive
link | DRSC23511 | 6 | – | inactive
Nup107 | DRSC01999 | 3 | – | inactive
CG42784 | DRSC02534 | 3 | – | inactive
CG42784 | DRSC22804 | 15 | – | inactive
CG42784 | DRSC23000 | 14 | – | inactive
CG42784 | DRSC25815 | 4 | – | inactive
CG42784 | DRSC29731 | 7 | – | inactive
jing | DRSC04923 | 9 | – | inactive
jing | DRSC05000 | 3 | – | inactive
CG3356 | DRSC04358 | 10 | – | inactive
CG3356 | DRSC28869 | 8 | – | inactive
Vps45 | DRSC16398 | 11 | – | inactive
CG14826 | DRSC10197 | 4 | – | inactive
